Laboratory results: patent publication US20250042940A1 (CREIGHTON UNIVERSITY, published 2025)
Results are given in words; binding and its absence hold for the method and conditions named. In cells and extracts the contact can be indirect. Some entries that bind do so weakly or less than the wild type.

How the values were obtained:
[1] = molecular target: T1, 14-3-3ε (endogenous, in human SCC12B.2 squamous cell carcinoma cells) (human), P62258; test: co-immunoprecipitation with anti-14-3-3ε antibody on Protein G Dynabeads from SCC12B.2 cell lysate, immunoblot; cells treated 48 h with vehicle or ES1P2 (20 µM); details: remark: other sources report otherwise
T1 chain: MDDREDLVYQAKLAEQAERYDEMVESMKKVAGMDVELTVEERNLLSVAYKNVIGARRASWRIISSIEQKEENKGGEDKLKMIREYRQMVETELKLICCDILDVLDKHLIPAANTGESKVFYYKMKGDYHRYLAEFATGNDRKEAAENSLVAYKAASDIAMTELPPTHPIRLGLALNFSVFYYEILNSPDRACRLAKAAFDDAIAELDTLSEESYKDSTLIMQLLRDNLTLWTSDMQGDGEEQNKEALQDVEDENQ

[2] = molecular target: 14-3-3ε (endogenous, in human SCC12B.2 squamous cell carcinoma cells) (human) (UniProt P62258); test: as above

B1: 14-3-3ζ (endogenous, in human SCC cells), P63104 1-245 (protein, UniProt P63104 1-245, looked up)
chain: MDKNELVQKAKLAEQAERYDDMAACMKSVTEQGAELSNEERNLLSVAYKNVVGARRSSWRVVSSIEQKTEGAEKKQQMAREYREKIETELRDICNDVLSLLEKFLIPNASQAESKVFYLKMKGDYYRYLAEVAAGDDKKGIVDQSQQAYQEAFEISKKEMQPTHPIRLGLALNFSVFYYEILNSPEKACSLAKTAFDEAIAELDTLSEESYKDSTLIMQLLRDNLTLWTSDTQGDEAEAGEGGEN
- binding [1]: binds

B2: 14-3-3γ (endogenous, in human SCC cells) (protein, UniProt P61981 1-247, looked up)
chain: MVDREQLVQKARLAEQAERYDDMAAAMKNVTELNEPLSNEERNLLSVAYKNVVGARRSSWRVISSIEQKTSADGNEKKIEMVRAYREKIEKELEAVCQDVLSLLDNYLIKNCSETQYESKVFYLKMKGDYYRYLAEVATGEKRATVVESSEKAYSEAHEISKEHMQPTHPIRLGLALNYSVFYYEIQNAPEQACHLAKTAFDDAIAELDTLNEDSYKDSTLIMQLLRDNLTLWTSDQQDDDGGEGNN
- binding [2]: binds
